According to PubChem BioAssay AID330 (DTP/NCI, 2004):
The list shows only some results of the screen, not a fair sample: it is rich in T/C values a quarter to a half above the control, in often repeated tests (any T/C) and in doses without a T/C. Other doses and runs of a compound stand elsewhere. T/C: endpoint of the treated group in % of that of the vehicle group. Some entries give survivors of the animals treated and no T/C: the source holds a T/C of zero for them, seemingly a mark for toxic or unscored doses. Some survivor counts are full or nearly so, which does not show that the dose was tolerated: survival well below the control is almost never listed, so the zero probably covers shortened survival too. Survivors were counted at the toxicity check, usually on the fifth day, unless a day is given; later deaths do not show. Schedule codes are those of the source, taken here to give the interval after Q, in days (D) or hours (H), and the number of doses after X. Some structures stand for samples that the source files as different forms (salt, stereo form or complex); doses refer to the form tested. Some doses were run more than once; their values stand side by side, smallest first. For survival time, the PubChem record calls one and a half times the control and up active, and a quarter to a half above the control has no call in these data; cut-offs in other NCI protocols can differ. Some T/C values carry the count of animals alive at the toxicity check (mostly the fifth day); without a count, all were alive then.

System: P388 leukemia ip, CD2F1 mice, survival T/C
Experiment: NCI In Vivo Anticancer Drug Screen. Data for tumor model P388 Leukemia (intraperitoneal) in CD2F1 (CDF1) mice
Conditions: T/C endpoint: median survival time, higher T/C = longer survival
[1] = dose: 240.0 mg/kg/injection, schedule: Q01DX005 (ip), vehicle: saline with Tween-80
[2] = dose: 100.0 mg/kg/injection, schedule: Q01DX009 (ip), vehicle: saline
[3] = dose: 200.0 mg/kg/injection, schedule: Q01DX009 (ip), vehicle: saline
[4] = dose: 100.0 mg/kg/injection, schedule: Q01DX005 (ip), vehicle: Klucel (hydroxypropylcellulose) (HPC)
[5] = dose: 200.0 mg/kg/injection, schedule: Q01DX005 (ip), vehicle: Klucel (hydroxypropylcellulose) (HPC)
[6] = dose: 60.0 mg/kg/injection, schedule: Q01DX005 (ip), vehicle: Klucel (hydroxypropylcellulose) (HPC)
[7] = dose: 100.0 mg/kg/injection, schedule: Q01DX009 (ip), vehicle: Klucel (hydroxypropylcellulose) (HPC)
[8] = dose: 400.0 mg/kg/injection, schedule: Q04DX003 (ip), vehicle: saline with Tween-80
[9] = dose: 120.0 mg/kg/injection, schedule: Q01DX005 (ip), vehicle: Klucel (hydroxypropylcellulose) (HPC)
[10] = dose: 240.0 mg/kg/injection, schedule: Q01DX005 (ip), vehicle: Klucel (hydroxypropylcellulose) (HPC)

For `CC(=O)Nc1ccc(SSc2ccc(NC(C)=O)c3cccnc23)c2ncccc12`, the survivor count (dose: 6.25 mg/kg/injection, schedule: Q01DX005 (ip), vehicle: saline with Tween-80) was 5 of 5, the survivor count (dose: 100.0 mg/kg/injection, schedule: Q01DX005 (ip), vehicle: saline with Tween-80) was 5 of 5 and the survivor count (dose: 200.0 mg/kg/injection, schedule: Q01DX005 (ip), vehicle: saline with Tween-80) was 3 of 5.
With `CCNC1(N(C)C)N=C(N(C)C)N=C(N(C)C)O1` (configuration not stated) the survivor count (dose: 200.0 mg/kg/injection, schedule: Q01DX005 (ip), vehicle: saline) was 0 of 6.
For `O=C1C=CC2C=CC1C=C2`, the survivor count (dose: 120.0 mg/kg/injection, schedule: Q01DX005 (ip), vehicle: saline with Tween-80) was 3 of 6 and the survivor count [1] was 0 of 6.
`CC(C)c1ccc(C2C3CCN2CC3)cc1` (configuration not stated) was tested, and the survivor count [2] was 0 of 6 and the survivor count [3] was 0 of 6.
For `C=C(Br)C(=NC(C)(C)C)Nc1ccccc1Cl`, the T/C (dose: 50.0 mg/kg/injection, schedule: Q01DX005 (ip), vehicle: Klucel (hydroxypropylcellulose) (HPC), evaluated on day 20) was 107 and 117 % of control [5 of 6 alive], the T/C (dose: 50.0 mg/kg/injection, schedule: Q01DX005 (ip), vehicle: Klucel (hydroxypropylcellulose) (HPC), evaluated on day 30) was 103 % of control and the survivor count (dose: 50.0 mg/kg/injection, schedule: Q01DX005 (ip), vehicle: Klucel (hydroxypropylcellulose) (HPC)) was 4 of 5. The T/C (dose: 100.0 mg/kg/injection, schedule: Q01DX005 (ip), vehicle: Klucel (hydroxypropylcellulose) (HPC), evaluated on day 20) was 117 % of control, the T/C (dose: 100.0 mg/kg/injection, schedule: Q01DX005 (ip), vehicle: Klucel (hydroxypropylcellulose) (HPC), evaluated on day 30) was 108 % of control [5 of 6 alive] and the survivor count [4] was 3 of 6 and 5 of 5. The T/C (dose: 200.0 mg/kg/injection, schedule: Q01DX005 (ip), vehicle: Klucel (hydroxypropylcellulose) (HPC), evaluated on day 20) was 130 % of control, the T/C (dose: 200.0 mg/kg/injection, schedule: Q01DX005 (ip), vehicle: Klucel (hydroxypropylcellulose) (HPC), evaluated on day 30) was 105 % of control and the survivor count [5] was 0 of 5, 0 of 6, 1 of 6.
With `COCC(O)Cn1ccnc1N=Nc1ccccc1` (configuration not stated) the survivor count [1] was 4 of 6.
For `CCCCCCCCCCCCCCCCSC1=CC(=O)C(Cl)=C(Cl)C1=O`, the survivor count (dose: 2.5 mg/kg/injection, schedule: Q01DX009 (ip), vehicle: Klucel (hydroxypropylcellulose) (HPC)) was 6 of 6 and the survivor count (dose: 5.0 mg/kg/injection, schedule: Q01DX009 (ip), vehicle: Klucel (hydroxypropylcellulose) (HPC)) was 6 of 6.
With `O=c1[nH]c2c([N+](=O)[O-])cc(Cl)cc2nc1/C=C(\O)c1ccc(Cl)cc1` the survivor count [6] was 5 of 6.
In the case of `CN(C)CCCC[N+](C)(C)Cc1ccc(C[N+](C)(C)CCCC[N+](C)(C)Cc2ccc(CCl)cc2)cc1`, the survivor count (dose: 25.0 mg/kg/injection, schedule: Q04DX003 (ip), vehicle: saline) is reported as 3 of 6, the survivor count (dose: 50.0 mg/kg/injection, schedule: Q04DX003 (ip), vehicle: saline) is reported as 0 of 6 and 3 of 6 and the survivor count (dose: 100.0 mg/kg/injection, schedule: Q04DX003 (ip), vehicle: saline) is reported as 0 of 6. For the same molecule, the survivor count (dose: 200.0 mg/kg/injection, schedule: Q04DX003 (ip), vehicle: saline) was 0 of 6 and the survivor count (dose: 400.0 mg/kg/injection, schedule: Q04DX003 (ip), vehicle: saline) was 0 of 6.
For `CSc1nc(Cl)cc(Sc2nc(N)nc3nc[nH]c23)n1`, the T/C [7] was 127 and 129 % of control and the survivor count (dose: 200.0 mg/kg/injection, schedule: Q01DX009 (ip), vehicle: Klucel (hydroxypropylcellulose) (HPC)) was 6 of 6.
For `O=C1CCCC2=C1[Se]C1(O2)C(=O)CCCC1=O`, the survivor count [2] was 0 of 6 and the survivor count [3] was 0 of 6.
For `O=C(CC(=O)N1CCN(c2ccccc2)CC1)N1CCN(c2ccccc2)CC1`, the survivor count (dose: 50.0 mg/kg/injection, schedule: Q01DX009 (ip), vehicle: saline) was 6 of 6 and the survivor count [3] was 2 of 6.
With `NS(=O)(=O)c1ccc(CN2C(=O)c3ccccc3C2=O)cc1` the survivor count (dose: 200.0 mg/kg/injection, schedule: Q04DX002 (ip), vehicle: saline with Tween-80) was 0 of 6 and the survivor count (dose: 400.0 mg/kg/injection, schedule: Q04DX002 (ip), vehicle: saline with Tween-80) was 0 of 6.
With `CC(CN(C)C)CN1c2ccccc2Sc2ccccc21` (configuration not stated) the T/C (dose: 50.0 mg/kg/injection, schedule: Q04DX003 (ip), vehicle: saline with Tween-80) was 129 and 131 % of control [5 of 6 alive], the survivor count (dose: 75.0 mg/kg/injection, schedule: Q04DX003 (ip), vehicle: saline with Tween-80) was 3 of 6 and the survivor count (dose: 100.0 mg/kg/injection, schedule: Q04DX003 (ip), vehicle: saline with Tween-80) was 3 of 6. The survivor count (dose: 200.0 mg/kg/injection, schedule: Q04DX003 (ip), vehicle: saline with Tween-80) was 0 of 6.
For `CCNC(=O)C1CCN(Cc2c[nH]c3ccccc23)CC1`, the survivor count [8] was 0 of 6.
`COc1cc2c[n+]3c(c(C)c2cc1OC)-c1cc2c(cc1CC3)OCO2` was tested, and the survivor count (dose: 50.0 mg/kg/injection, schedule: Q04DX003 (ip), vehicle: distilled water + Tween-80) was 3 of 6, the survivor count (dose: 100.0 mg/kg/injection, schedule: Q04DX003 (ip), vehicle: distilled water + Tween-80) was 0 of 6 and the survivor count (dose: 200.0 mg/kg/injection, schedule: Q04DX003 (ip), vehicle: distilled water + Tween-80) was 0 of 6. For the same molecule, the survivor count (dose: 400.0 mg/kg/injection, schedule: Q04DX003 (ip), vehicle: distilled water + Tween-80) was 0 of 6.
`CC(/C=C/c1cccc(C)c1)=N\NC(N)=S` was tested, and the T/C (dose: 15.0 mg/kg/injection, schedule: Q01DX005 (ip), vehicle: Klucel (hydroxypropylcellulose) (HPC)) was 125 % of control, the survivor count (dose: 30.0 mg/kg/injection, schedule: Q01DX005 (ip), vehicle: Klucel (hydroxypropylcellulose) (HPC)) was 5 of 6 and the survivor count [6] was 0 of 6. The survivor count [9] was 0 of 6 and the survivor count [10] was 0 of 6.
With `CCOC(=O)N/N=C/c1ccc(N(C)CCC#N)cc1` the survivor count [7] was 6 of 6 and the survivor count (dose: 400.0 mg/kg/injection, schedule: Q01DX009 (ip), vehicle: Klucel (hydroxypropylcellulose) (HPC)) was 3 of 6.
With `CCCCCCCCSC1=CC(=O)C(OC)=C(OC)C1=O` the survivor count (dose: 2.0 mg/kg/injection, schedule: Q01DX009 (ip), vehicle: Klucel (hydroxypropylcellulose) (HPC)) was 6 of 6, the survivor count (dose: 16.0 mg/kg/injection, schedule: Q01DX009 (ip), vehicle: Klucel (hydroxypropylcellulose) (HPC)) was 6 of 6 and the survivor count (dose: 32.0 mg/kg/injection, schedule: Q01DX009 (ip), vehicle: Klucel (hydroxypropylcellulose) (HPC)) was 1 of 6.
With `CC(C)=NNC1=NC(C)(C)P(=O)(NNc2ncccn2)S1` (configuration not stated) the survivor count (dose: 120.0 mg/kg/injection, schedule: Q01DX005 (ip), vehicle: saline) was 0 of 6 and the survivor count (dose: 240.0 mg/kg/injection, schedule: Q01DX005 (ip), vehicle: saline) was 0 of 6.
In the case of `C1=NCCCN2CCCCC12` (configuration not stated), the survivor count (dose: 80.0 mg/kg/injection, schedule: Q01DX009 (ip), vehicle: saline) is reported as 2 of 6.
In the case of `O=[N+]([O-])/C=C/c1cc2c(cc1Br)OCO2`, the survivor count [8] is reported as 3 of 6.
`CN(C)CCCOc1cccc(NC2=C(Cl)C(=O)C(Nc3cccc(OCCCN(C)C)c3)=C(Cl)C2=O)c1` was tested, and the survivor count [4] was 1 of 5 and the survivor count [5] was 0 of 5.
With `CNC(=S)NC(C)(C)C` the survivor count [9] was 0 of 6 and the survivor count [10] was 0 of 6.
In the case of `CCOC(=O)C1=C(C)N[C@H](c2ccccc2[N+](=O)[O-])N[C@H]1c1ccccc1[N+](=O)[O-]`, the survivor count [4] is reported as 6 of 6 and the survivor count [5] is reported as 6 of 6.
With `CC([Se])=Nc1ccc(Br)cc1` the survivor count (dose: 50.0 mg/kg/injection, schedule: Q04DX003 (ip), vehicle: Klucel (hydroxypropylcellulose) (HPC)) was 0 of 6, the survivor count (dose: 100.0 mg/kg/injection, schedule: Q04DX003 (ip), vehicle: Klucel (hydroxypropylcellulose) (HPC)) was 0 of 6 and the survivor count (dose: 200.0 mg/kg/injection, schedule: Q04DX003 (ip), vehicle: Klucel (hydroxypropylcellulose) (HPC)) was 0 of 6. The survivor count (dose: 400.0 mg/kg/injection, schedule: Q04DX003 (ip), vehicle: Klucel (hydroxypropylcellulose) (HPC)) was 0 of 6.
